Assay results as given in PubChem BioAssay AID1347423 (Functional Genomics Laboratory (NCATS/FGL), 2020).
The campaign covered roughly 52,000 sequences. About 210 (0.4%) were called active.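 How the source made its calls: active means gene whose silencing raises cell survival under the drug, median off-target-corrected z-score across its silencing RNAs 2 or more; inactive means the rest.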 The list shows a part of the results.

Test: Resistance to Poly (ADP-Ribose) Polymerase inhibitor: Gene Identification via Genome-wide siRNA Screen
Conditions: mouse BRCA2 R2336H ES cells, olaparib, CellTiter-Glo viability; hits give high values
In short: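 Genome-wide siRNA screen (3 siRNAs/gene, 20 nM) in mouse ES cells carrying hypomorphic BRCA2 R2336H; olaparib 500 nM added 48 h post-transfection, CellTiter-Glo viability 72 h later. Normalized to plate-median negative control; MAD z-scores, gene median, seed-adjusted.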

Sequence	z-score
GGGACACUCCACCUUUCAUTT against Notch4	inactive: 0.596
GCACCGGUGAAAAAGAAGATT against Pinx1	inactive: -0.0213
GGAAUGUUAACAAAGAGCATT against Sgcb	inactive: 0.478
GGUUUUCCGGACAGACUUGTT against Phf15	inactive: 1.46
GGUGUUUACAACCUCACAATT against Pecr	inactive: -0.519
GGACUCAAGUGCAAGACACTT against D330017J20Rik	inactive: -0.806
GCCUGUAUGGAUGGAUUCCTT against 4631427C17Rik	inactive: 0.927
GCCAUUCAAUGAUACAAUGTT against Adamts19	inactive: 1.07
GGUGUCAAGUGGAUUAUCCTT against Slc12a8	inactive: -0.571
GGGUCUUGUGAUCUCAAUUTT against Cyp2a5	inactive: -0.769
GGCACCUUCAAAUUACAUCTT against Asl	inactive: -0.552
GGAUGACUGUCUUCCAUCGTT against Hrg	inactive: -0.938
GGAGGUAUUUCAAAUUGCUTT against 2900057D21Rik	inactive: -1.69
GCCAUAGCGAUCACUACUGTT against Sfpi1	inactive: 2.33
GCAUCUCGUGUGACUUAAGTT against Ak1	inactive: -0.383
CCUCCUCCAAUUAAAGACATT against Crsp9	inactive: 0.699
CGUUCUUGAGAGUCGAUCATT against Smoc2	inactive: -0.236
GGGUGGACUGAAUGCUGAUTT against Qtrt1	inactive: -1.25
GGCAAGACUGAGCAAGAUUTT against Catsper3	inactive: 1.01
CCUAACAAGGGAAUAAAUGTT against Icosl	inactive: 0.893
GGCAGACAAGUUCACAGUGTT against Igsf6	inactive: 0.557
GCCACAAGAUACCAUCAGATT against Rex3	inactive: 2.22
GGGAGUGAUGGUACCCUAUTT against Myf6	inactive: -1.17

Part of the list above in a different format.
GGUGUUUACAACCUCACAATT against Pecr
  z-score: inactive: -0.519
GGGUGGACUGAAUGCUGAUTT against Qtrt1
  z-score: inactive: -1.25
GGGAGUGAUGGUACCCUAUTT against Myf6
  z-score: inactive: -1.17

(cont.)

Sequence	z-score
GGAAUUCAACUCAGAUAAGTT against C3	inactive: -0.52
GGUUAUGAUUGGUUUGAAGTT against 1500009M05Rik	inactive: 1.1
GGAAAUCUCUUCAUGGAUATT against Kng1	inactive: -0.296
GGACUUCAGCAAUGUCUUGTT against Rab17	inactive: -0.933
GGAGCUAAGGUGGUACGAGTT against 2210008I11Rik	inactive: 0.461
AUAAGAUGUUGCUCGGAACTT against Olfr1193	inactive: -0.282
GCAUAAAGCACCCGGAGAGTT against Rog	inactive: 0.0889
GGAUCAAGAAAAGAUGAAATT against Galnt1	inactive: 1.41
GGCUCCCUUUUUUGUACUATT against Olfr1056	inactive: 1.28
GGCAAGAAAAAUCAGAUUGTT against Cyld	inactive: 0.603
GGUUUUGGGCAAAAUUGAGTT against Edf1	inactive: 0.714
GGAUUACUGUGCUUCUAAUTT against Olfr788	inactive: -0.505
GGUGGCAGUAUGAAUUCGATT against Serpina12	inactive: -0.379
GGAAUGGAAUAGCAGAGCUTT against 2610204K14Rik	inactive: 1.91
GGUCUAGCUCAAAAUCCCATT against Sfrs12	inactive: 0.22
CCAUUUGAUGACAGUAAUATT against Olfr178	inactive: -1.23
GCCUGACACUUGAUAUGUATT against 2310067G05Rik	inactive: -0.735
GCCGAAGUAUCUGAUAGUCTT against D930038M13Rik	inactive: 0.438
GGCAGAAAGCAGAAACAGUTT against Rage	inactive: -1.19
GCCGCGUUUUGACUGAUCATT against B130021E18	inactive: -0.324
GGCUUACAAAAAGUACAUCTT against Tpt1	inactive: -1.37
GGUAGAAGAGGAAUCUUGGTT against Pitpnm1	inactive: -0.206
GGGUAGAGGCCUUGAAAAUTT against Gps1	inactive: -2.12

Sequence	z-score
GGAAGAAAAACUCUUGCACTT against Cdc5l	inactive: 0.196
GCUGGAAUACGGAAAAUGGTT against Gbe1	inactive: 0.204
CGACCAAGAGCAAAACGAUTT against Gm266	inactive: -0.945
CCAUGUAAGAUGUUAAGUATT against Abcb1a	inactive: 0.643
GGAAGAAGGCUAUAAGAAATT against Galnt6	inactive: 0.266
CGGUCAUUUACGAGAUACCTT against Pdgfa	inactive: 0.441
GGCCGGCCAGAUAAAGAAATT against Ptrf	inactive: -0.143
GGCCUUCAAGUGCAUGAUGTT against Yaf2	inactive: 0.181
CCAUGAGACAAGAUUUAGATT against Olfr818	inactive: -0.162
CGGACUUUUUUGGAUUUUCTT against Zfp238	inactive: 0.901
GGCCACGUUACACGUACUUTT against Wnt3a	inactive: 0.373
GGCUACAAGUGGGAAUUCATT against Cklfsf2b	inactive: -1.06
CCCUGAAACAAUGAAUACATT against Serpini1	inactive: -0.751
GCUGGUGGCACUGAAGCUATT against Nme3	inactive: -2.95
CCUGCUUACCAAAGAAUCCTT against Tieg3	inactive: 0.553
GCACAUUUGGACAACCAAUTT against LOC245128	inactive: -0.966
GGCCAGAACUUAAAUUUUCTT against Nbr1	inactive: -0.105
UGCCCUUCCUAUUUUAUAATT against 2410015A16Rik	inactive: 0.138
GCUAAUGCUUGUUGAACACTT against Hpcal4	inactive: -1.18
GGCACAACUGAUUUUGAAATT against Ifngr2	inactive: 1.06
CCGUGUUCUCUAUCCAGCATT against Slc7a9	inactive: -0.514
